# Test results as given in the supplement of paper PMC8728848.
# The other results are listed elsewhere or left out.
# Key:
# Assay in all cases: glycan array binding signal (z-score within array); higher = stronger binding
# Settings in all cases: glycan notation: IUPAC condensed, linker removed
# [1] = biological target: Gal(b1-3)GalNAc(b1-4)[Neu5Ac(a2-3)]Gal(b1-4)Glc
# Procedure, shortened: (§1)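 From the Consortium for Functional Glycomics database, 3228 arrays were curated, keeping only those whose protein sequence was available. Binding is given as a within-array Z-score averaged across arrays sharing a protein sequence and across linkers. Negative Z-scores can be read as non-binding.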
# [2] = biological target: Gal(b1-3)GlcNAc
# Procedure, shortened: as §1
# [3] = biological target: Gal(b1-3)GlcNAc(b1-3)Gal(b1-3)GlcNAc
# Procedure, shortened: as §1
# [4] = biological target: Gal(b1-3)GlcNAc(b1-3)Gal(b1-4)Glc
# Procedure, shortened: as §1
# [5] = biological target: Gal(b1-3)[Fuc(a1-4)]GlcNAc
# Procedure, shortened: as §1
# [6] = biological target: Gal(b1-3)[Fuc(a1-4)]GlcNAc(b1-3)Gal(b1-3)[Fuc(a1-4)]GlcNAc
# Procedure, shortened: as §1
# [7] = biological target: Gal(b1-3)[Fuc(a1-4)]GlcNAc(b1-3)Gal(b1-4)GlcNAc
# Procedure, shortened: as §1
# [8] = biological target: Gal(b1-3)[Fuc(a1-4)]GlcNAc(b1-3)Gal(b1-4)[Fuc(a1-3)]GlcNAc
# Procedure, shortened: as §1
# [9] = biological target: Gal(b1-3)[GlcNAc(b1-6)]GalNAc
# Procedure, shortened: as §1
# [10] = biological target: Gal(b1-3)[GlcNAc(b1-6)]GlcNAc
# Procedure, shortened: as §1
# [11] = biological target: Gal(b1-3)[Neu5Ac(a2-6)]GalNAc
# Procedure, shortened: as §1
# [12] = biological target: Gal(b1-3)[Neu5Ac(a2-6)]GlcNAc
# Procedure, shortened: as §1
# [13] = biological target: Gal(b1-3)[Neu5Ac(a2-6)]GlcNAc(a1-4)Gal(b1-4)Glc
# Procedure, shortened: as §1
# [14] = biological target: Gal(b1-3)[Neu5Ac(a2-6)]GlcNAc(b1-4)Gal(b1-4)Glc
# Procedure, shortened: as §1
# [15] = biological target: Gal(b1-3)[Neu5Ac(b2-6)]GalNAc
# Procedure, shortened: as §1
# [16] = biological target: Gal(b1-3)[Neu5Ac(b2-6)]GlcNAc
# Procedure, shortened: as §1
# [17] = biological target: Gal(b1-4)GalNAc(a1-3)[Fuc(a1-2)]Gal(b1-4)GlcNAc
# Procedure, shortened: as §1
# [18] = biological target: Gal(b1-4)GalNAc(b1-3)[Fuc(a1-2)]Gal(b1-4)GlcNAc
# Procedure, shortened: as §1
# [19] = biological target: Gal(b1-4)Glc
# Procedure, shortened: as §1
# [20] = biological target: Gal(b1-4)Glc6S
# Procedure, shortened: as §1
# [21] = biological target: Gal(b1-4)GlcNAc
# Procedure, shortened: as §1
# [22] = biological target: Gal(b1-4)GlcNAc(b1-2)Man(a1-3)[Gal(b1-4)GlcNAc(b1-2)Man(a1-6)]Man(b1-4)GlcNAc(b1-4)GlcNAc
# Procedure, shortened: as §1
# [23] = biological target: Gal(b1-4)GlcNAc(b1-3)Gal(b1-3)GlcNAc
# Procedure, shortened: as §1
# [24] = biological target: Gal(b1-4)GlcNAc(b1-3)Gal(b1-4)Glc
# Procedure, shortened: as §1
# [25] = biological target: Gal(b1-4)GlcNAc(b1-3)Gal(b1-4)GlcNAc
# Procedure, shortened: as §1
# [26] = biological target: Gal(b1-4)GlcNAc(b1-3)Gal(b1-4)GlcNAc(b1-3)Gal(b1-4)GlcNAc
# Procedure, shortened: as §1
# [27] = biological target: Gal(b1-4)GlcNAc(b1-3)Gal(b1-4)[Fuc(a1-3)]GlcNAc(b1-3)Gal(b1-4)[Fuc(a1-3)]GlcNAc
# Procedure, shortened: as §1
# [28] = biological target: Gal(b1-4)GlcNAc(b1-3)GalNAc
# Procedure, shortened: as §1
# [29] = biological target: Gal(b1-4)GlcNAc(b1-3)[Gal(b1-4)GlcNAc(b1-6)]GalNAc
# Procedure, shortened: as §1
# [30] = biological target: Gal(b1-4)GlcNAc(b1-6)GalNAc
# Procedure, shortened: as §1
# [31] = biological target: Gal(b1-4)GlcNAc(b1-6)[Gal(b1-3)]GalNAc
# Procedure, shortened: as §1
# [32] = biological target: Gal(b1-4)GlcNAc(b1-6)[Gal(b1-3)]GlcNAc
# Procedure, shortened: as §1
# [33] = biological target: Gal3S(b1-3)GalNAc
# Procedure, shortened: as §1
# [34] = biological target: Gal3S(b1-3)GlcNAc
# Procedure, shortened: as §1
# [35] = biological target: Gal3S(b1-3)[Fuc(a1-4)]GlcNAc
# Procedure, shortened: as §1
# [36] = biological target: Gal3S(b1-4)Glc
# Procedure, shortened: as §1
# [37] = biological target: Gal3S(b1-4)Glc6S
# Procedure, shortened: as §1
# [38] = biological target: Gal3S(b1-4)GlcNAc
# Procedure, shortened: as §1
# [39] = biological target: Gal3S(b1-4)GlcNAc6S
# Procedure, shortened: as §1
# [40] = biological target: Gal3S6S(b1-4)GlcNAc
# Procedure, shortened: as §1
# [41] = biological target: Gal3S6S(b1-4)GlcNAc6S
# Procedure, shortened: as §1
# [42] = biological target: Gal4S(b1-4)GlcNAc
# Procedure, shortened: as §1
# [43] = biological target: Gal4S6S(b1-4)GlcNAc
# Procedure, shortened: as §1
# [44] = biological target: Gal6S(b1-4)Glc
# Procedure, shortened: as §1
# [45] = biological target: Gal6S(b1-4)Glc6S
# Procedure, shortened: as §1
# [46] = biological target: Gal6S(b1-4)GlcNAc
# Procedure, shortened: as §1
# [47] = biological target: GalNAc(a1-3)Gal
# Procedure, shortened: as §1
# [48] = biological target: GalNAc(a1-3)GalNAc
# Procedure, shortened: as §1
# [49] = biological target: GalNAc(b1-3)Gal(a1-4)Gal(b1-4)GlcNAc
# Procedure, shortened: as §1
# [50] = biological target: GalNAc(b1-3)GalNAc
# Procedure, shortened: as §1
# [51] = biological target: GalNAc(b1-4)GlcNAc
# Procedure, shortened: as §1
# [52] = biological target: Glc(a1-4)Glc
# Procedure, shortened: as §1
# [53] = biological target: Glc(a1-6)Glc(a1-6)Glc
# Procedure, shortened: as §1
# [54] = biological target: Glc(b1-4)Glc
# Procedure, shortened: as §1
# [55] = biological target: Glc(b1-6)Glc
# Procedure, shortened: as §1
# [56] = biological target: GlcA(b1-3)Gal
# Procedure, shortened: as §1
# [57] = biological target: GlcA(b1-6)Gal
# Procedure, shortened: as §1
# [58] = biological target: GlcNAc(a1-3)Gal(b1-4)GlcNAc
# Procedure, shortened: as §1
# [59] = biological target: GlcNAc(a1-6)Gal(b1-4)GlcNAc
# Procedure, shortened: as §1
# [60] = biological target: GlcNAc(b1-2)Gal(b1-3)GalNAc
# Procedure, shortened: as §1
# [61] = biological target: GlcNAc(b1-2)Gal(b1-3)GlcNAc
# Procedure, shortened: as §1
# [62] = biological target: GlcNAc(b1-2)Man(a1-3)[GlcNAc(b1-2)Man(a1-6)]Man(b1-4)GlcNAc(b1-4)GlcNAc
# Procedure, shortened: as §1
# [63] = biological target: GlcNAc(b1-3)Gal
# Procedure, shortened: as §1
# [64] = biological target: GlcNAc(b1-3)Gal(b1-3)GalNAc
# Procedure, shortened: as §1
# [65] = biological target: GlcNAc(b1-3)Gal(b1-4)Glc
# Procedure, shortened: as §1
# [66] = biological target: GlcNAc(b1-3)Gal(b1-4)GlcNAc
# Procedure, shortened: as §1
# [67] = biological target: GlcNAc(b1-3)Gal(b1-4)GlcNAc(b1-3)Gal(b1-4)GlcNAc
# Procedure, shortened: as §1
# [68] = biological target: GlcNAc(b1-3)GalNAc
# Procedure, shortened: as §1
# [69] = biological target: GlcNAc(b1-3)[GlcNAc(b1-4)][GlcNAc(b1-6)]GlcNAc
# Procedure, shortened: as §1
# [70] = biological target: GlcNAc(b1-3)[GlcNAc(b1-6)]Gal(b1-4)GlcNAc
# Procedure, shortened: as §1
# [71] = biological target: GlcNAc(b1-3)[GlcNAc(b1-6)]GalNAc
# Procedure, shortened: as §1
# [72] = biological target: GlcNAc(b1-3)[GlcNAc(b1-6)]GlcNAc
# Procedure, shortened: as §1
# [73] = biological target: GlcNAc(b1-3)[GlcNAc(b1-6)]GlcNAc(b1-4)GlcNAc
# Procedure, shortened: as §1
# [74] = biological target: GlcNAc(b1-4)Gal(b1-4)GlcNAc
# Procedure, shortened: as §1
# [75] = biological target: GlcNAc(b1-4)GlcNAc(b1-4)GlcNAc
# Procedure, shortened: as §1
binder,measurement,setting,value
"TIM-1 (Mus musculus), AAL35774 (protein) MNQIQVFISGLILLLPGAVDSYVEVKGVVGHPVTLPCTYSTYRGITTTCWGRGQCPSSACQNTLIWTNGHRVTYQKSSRYNLKGHISEGDVSLTIENSVESDSGLYCCRVEIPGWFNDQKVTFSLQVKPEIPTRPPTRPTTTRPTATGRPTTISTRSTHVPTSIRVSTSTPPTSTHTWTHKPEPTTFCPHETTAEVTGIPSHTPTDWNGTVTSSGDTWSNHTEAIPPGKPQKNPTKGFYVGICIAALLLLLLVSTVAITRYILMKRKSASLSVVAFRVSKIEALQNAAVVHSRAEDNIYIVEDRP",glycan array binding signal (z-score),[1],-0.427
same,glycan array binding signal (z-score),[2],-0.422
same,glycan array binding signal (z-score),[3],-0.342
same,glycan array binding signal (z-score),[4],-0.606
same,glycan array binding signal (z-score),[5],-0.118
same,glycan array binding signal (z-score),[6],0.521
same,glycan array binding signal (z-score),[7],-0.392
same,glycan array binding signal (z-score),[8],0.287
same,glycan array binding signal (z-score),[9],-0.186
same,glycan array binding signal (z-score),[10],-0.051
same,glycan array binding signal (z-score),[11],0.16
same,glycan array binding signal (z-score),[12],-0.207
same,glycan array binding signal (z-score),[13],-0.409
same,glycan array binding signal (z-score),[14],-0.205
same,glycan array binding signal (z-score),[15],-0.477
same,glycan array binding signal (z-score),[16],-0.663
same,glycan array binding signal (z-score),[17],-0.149
same,glycan array binding signal (z-score),[18],0.19
same,glycan array binding signal (z-score),[19],0.051
same,glycan array binding signal (z-score),[20],-0.038
same,glycan array binding signal (z-score),[21],-0.204
same,glycan array binding signal (z-score),[22],-0.501
same,glycan array binding signal (z-score),[23],-0.193
same,glycan array binding signal (z-score),[24],-0.25
same,glycan array binding signal (z-score),[25],0.594
same,glycan array binding signal (z-score),[26],0.811
same,glycan array binding signal (z-score),[27],-0.333
same,glycan array binding signal (z-score),[28],-0.185
same,glycan array binding signal (z-score),[29],-0.321
same,glycan array binding signal (z-score),[30],-0.538
same,glycan array binding signal (z-score),[31],-0.541
same,glycan array binding signal (z-score),[32],-0.001
same,glycan array binding signal (z-score),[33],-0.492
same,glycan array binding signal (z-score),[34],-0.247
same,glycan array binding signal (z-score),[35],-0.02
same,glycan array binding signal (z-score),[36],-0.376
same,glycan array binding signal (z-score),[37],-0.104
same,glycan array binding signal (z-score),[38],-0.614
same,glycan array binding signal (z-score),[39],-0.709
same,glycan array binding signal (z-score),[40],-0.746
same,glycan array binding signal (z-score),[41],-0.411
same,glycan array binding signal (z-score),[42],-0.19
same,glycan array binding signal (z-score),[43],-0.402
same,glycan array binding signal (z-score),[44],-0.128
same,glycan array binding signal (z-score),[45],-0.247
same,glycan array binding signal (z-score),[46],-0.405
same,glycan array binding signal (z-score),[47],-0.406
same,glycan array binding signal (z-score),[48],-0.494
same,glycan array binding signal (z-score),[49],-0.153
same,glycan array binding signal (z-score),[50],-0.61
same,glycan array binding signal (z-score),[51],-0.264
same,glycan array binding signal (z-score),[52],0.384
same,glycan array binding signal (z-score),[53],-0.068
same,glycan array binding signal (z-score),[54],-0.218
same,glycan array binding signal (z-score),[55],0.034
same,glycan array binding signal (z-score),[56],2.46
same,glycan array binding signal (z-score),[57],2.12
same,glycan array binding signal (z-score),[58],0.43
same,glycan array binding signal (z-score),[59],-0.264
same,glycan array binding signal (z-score),[60],-0.376
same,glycan array binding signal (z-score),[61],-0.487
same,glycan array binding signal (z-score),[62],1.17
same,glycan array binding signal (z-score),[63],-0.449
same,glycan array binding signal (z-score),[64],0.123
same,glycan array binding signal (z-score),[65],-0.033
same,glycan array binding signal (z-score),[66],0.064
same,glycan array binding signal (z-score),[67],-0.327
same,glycan array binding signal (z-score),[68],-0.514
same,glycan array binding signal (z-score),[69],-0.609
same,glycan array binding signal (z-score),[70],-0.387
same,glycan array binding signal (z-score),[71],-0.3
same,glycan array binding signal (z-score),[72],-0.61
same,glycan array binding signal (z-score),[73],0.029
same,glycan array binding signal (z-score),[74],-0.235
same,glycan array binding signal (z-score),[75],-0.379

# 2 entries from above in another layout.
binder	measurement	setting	value
TIM-1 (Mus musculus), AAL35774 (protein) MNQIQVFISGLILLLPGAVDSYVEVKGVVGHPVTLPCTYSTYRGITTTCWGRGQCPSSACQNTLIWTNGHRVTYQKSSRYNLKGHISEGDVSLTIENSVESDSGLYCCRVEIPGWFNDQKVTFSLQVKPEIPTRPPTRPTTTRPTATGRPTTISTRSTHVPTSIRVSTSTPPTSTHTWTHKPEPTTFCPHETTAEVTGIPSHTPTDWNGTVTSSGDTWSNHTEAIPPGKPQKNPTKGFYVGICIAALLLLLLVSTVAITRYILMKRKSASLSVVAFRVSKIEALQNAAVVHSRAEDNIYIVEDRP	glycan array binding signal (z-score)	[9]	-0.186
same	glycan array binding signal (z-score)	[10]	-0.051
